# Results: PubChem BioAssay AID540276 (National Center for Advancing Translational Sciences (NCATS), 2011)
# The whole screen tested about 300,000 compounds, of which about 5,400 (1.8%) were called active. Inconclusive means that the source gave no clear call. Such entries were picked first, then a sample of the others. The call rests on the fitted dose curve; tested in HEK293 cells. A potency beside an inconclusive call is a rough fit, not a confirmed value.
# Assay: qHTS for inhibitors of binding or entry into cells for Marburg Virus
# Settings: Marburg virus pseudotyped entry inhibition, cell reporter; series mostly up to 37.8 µM
# Potency means the concentration at half of the fitted maximal effect.
row,Structure (SMILES),Potency
1,O=c1c(-c2ccc(Cl)cc2)c(C(F)(F)F)oc2c(CN3CCCCC3)c(O)ccc12,inactive
2,CN(Cc1ccc(N(C)C)cc1)C(=O)c1cc2ccccc2o1,inactive
3,CC1(C)CC2(CCO1)OC(=O)CC2C(=O)Nc1cccc2ccccc12 (centres undefined),inactive
4,CC1(C)CN(c2cccc(C#N)c2)C1=O,"inconclusive: 0.562 µM [activator, full curve, poor fit]"
5,CC(C)C(=O)Nc1ccc(S(=O)(=O)Nc2nccc(/C=C/c3ccccc3)n2)cc1,"inconclusive: 0.251 µM [inhibitor, full curve, poor fit]"
6,CN1CCN(C2Cc3cc(Cl)ccc3Sc3cc(F)ccc32)CC1 (centres undefined),"inconclusive: 10 µM [inhibitor, partial curve, poor fit]"
7,COc1ccc(CCN2CC(C(=O)NCC(c3ccccc3)N(C)C)CC2=O)cc1OC (centres undefined),"inconclusive: 15.8 µM [activator, partial curve, poor fit]"
8,CC1Cc2ccccc2N1c1ncnc2c1nnn2Cc1ccccc1 (centres undefined),"inconclusive: 18.3 µM [inhibitor, single point]"
9,COc1ccccc1C(=O)Nc1c(C(=O)N(C)Cc2ccccc2)sc2nc(C)c(Cl)c(C)c12,"inconclusive: 10 µM [inhibitor, partial curve, poor fit]"
10,COc1ccccc1NC(=O)c1ccc(-n2ccnc2)c([N+](=O)[O-])c1,inactive
11,CC(NC(=O)c1ccccc1NC(=O)CN1CCc2ccccc2C1)c1ccccc1 (centres undefined),"inconclusive: 11.2 µM [inhibitor, partial curve, poor fit]"
12,Cc1cc(Cl)c2oc(C(=O)NC(C)c3ccncn3)c(C)c2c1 (centres undefined),"inconclusive: 3.55 µM [inhibitor, single point]"
13,CN(CCCNC(=O)CSc1cc(=O)n(C)c2cc(Cl)ccc12)Cc1ccccc1,"inconclusive: 14.1 µM [inhibitor, single point]"
14,Cc1ccc2c(c1)-c1nc(-c3ccc4c(c3)NC(=O)CO4)cc(-c3ccc(F)cc3)c1CO2,inactive
15,Cc1cc(NC(=O)c2cc3n(n2)C(C(F)(F)F)CC(c2ccc(Cl)c(Cl)c2)N3)no1 (centres undefined),"inconclusive: 0.0046 µM [inhibitor, full curve, poor fit]"
16,COC(=O)c1cc(NC(=O)CC2SC(=Nc3ccccc3)N(CCc3c[nH]c4ccccc34)C2=O)cc(C(=O)OC)c1 (centres undefined),"inconclusive: 20.6 µM [inhibitor, partial curve, poor fit]"
17,COc1cccc(/C=N/Nc2nc3ccccc3n3cnnc23)c1,"inconclusive: 5.62 µM [inhibitor, partial curve, poor fit]"
18,CC1CN(Cc2csc(-c3ccc(Cl)cc3)n2)CC(C)O1 (centres undefined),"inconclusive: 15.8 µM [inhibitor, single point]"
19,CC(=O)c1ccc(NC(=O)CSc2ccc3nnc(-c4cccnc4)n3n2)cc1,inactive
20,CCCCc1ccc(NC(=S)NCCO)cc1,"inconclusive: 2.51 µM [activator, single point]"
21,O=C(NO)c1ccc(C(=O)N(C2CCCCC2)C2CCCCC2)cc1,"inconclusive: 29.1 µM [inhibitor, single point]"
22,CC(C)(Oc1ccc(Cl)cc1)C(=O)N1CCN(c2ccccn2)CC1,inactive
23,CC(C)CCOc1ccc(C(=O)O)cc1,inactive

row,Structure (SMILES),Potency
1,O=C(O/N=C1\CCCc2ccccc21)C1CC1,inactive
2,Clc1ccc(CNc2ncccn2)cc1,inactive
3,COc1cccc(-c2cc(C(F)(F)F)nc(NCCc3ccccc3)n2)c1,"inconclusive: 35.5 µM [activator, single point]"
4,O=C(c1ccc2c(c1)OCO2)N1CCN(c2cccc(C(F)(F)F)c2)CC1,"inconclusive: 12.6 µM [inhibitor, partial curve, poor fit]"
5,O=C1C2C3CCC(C3)C2C(=O)N1Cc1ccco1 (centres undefined),inactive
6,CCCCOc1ccc(CN2C(=O)C(=O)c3cc(Br)cc(C)c32)cc1OC,"inconclusive: 35.5 µM [inhibitor, single point]"
7,COc1ccc(C(=O)NCc2ccccc2CN2CCCC2)cc1S(=O)(=O)N1CCOCC1,inactive
8,CCOC(=O)c1c(CSCc2ccccc2)oc2ccc(O)c(CN(C)C)c12,"inconclusive: 2.82 µM [inhibitor, full curve, poor fit]"
9,CCn1cc(C(=O)N2CCCc3ccccc32)c2cc(OC)c(OC)cc2c1=O,"inconclusive: 1.12 µM [activator, single point]"
10,CC(=O)OC1CC2(C)C(C(C)=O)CCC2C2CCC3=CC(=O)CCC3(C)C12 (centres undefined),"inconclusive: 5.62 µM [inhibitor, full curve, poor fit]"
11,O=C(CNS(=O)(=O)c1ccc([N+](=O)[O-])cc1)N/N=C/c1ccc(O)cc1O,"inconclusive: 6.31 µM [inhibitor, full curve, poor fit]"
12,Cc1cccc(-n2c(-c3csc(C)c3C)n[nH]c2=S)c1,"inconclusive: 6.31 µM [activator, single point]"
13,CCCN(N=Nc1cccc([N+](=O)[O-])c1)c1cccc([N+](=O)[O-])c1,"inconclusive: 6.51 µM [inhibitor, partial curve, poor fit]"
14,CCOc1ccc(CCNS(=O)(=O)c2cnc[nH]2)cc1OCC,inactive
15,COC(=O)c1ccc(-c2ccc(/C=N/N3C(=O)C4C5C=CC(CC5)C4C3=O)o2)cc1 (centres undefined),"inconclusive: 10 µM [activator, partial curve]"
16,COc1ccc(OCC(=O)NC(=S)N2CCCc3ccccc32)cc1,inactive
17,CCc1cc2cccc(C)c2nc1SCC(=O)Nc1cc(C)on1,"inconclusive: 3.16 µM [inhibitor, partial curve, poor fit]"
18,CN(C(=O)c1sc2nc(N3CCOCC3)c3c(c2c1N)CCCC3)c1ccccc1,"inconclusive: 10 µM [inhibitor, partial curve, poor fit]"
19,CC(C)(C)NCC(O)c1cc(Cl)c(N)c(Cl)c1 (centres undefined),inactive
20,O=C(CN1C2CCC1CC(O)(c1cccnc1)C2)Nc1ccc2c(c1)OCO2 (centres undefined),inactive
21,CCn1c(SCC(=O)N2CCCCCC2)nc2ccccc2c1=O,"inconclusive: 8.91 µM [inhibitor, partial curve, poor fit]"
22,COc1ccc(O)c(/C=N/NC(=O)c2ccc(CSc3nc(C)cc(C)n3)cc2)c1,"inconclusive: 35.5 µM [inhibitor, partial curve, poor fit]"
23,CC(=O)c1ccc(Nc2cc(C)nc3c(C)cc(C)cc23)cc1,active: 4.11 µM

row,Structure (SMILES),Potency
1,COc1ccc(C(=O)O)cc1NC(=S)NC(=O)C(c1ccccc1)c1ccccc1,"inconclusive: 12.6 µM [inhibitor, partial curve, poor fit]"
2,COc1cc(S(=O)(=O)N2CCOCC2)ccc1NC(=O)COC(=O)CC12CC3CC(CC(C3)C1)C2,inactive
3,CCCc1cc(=O)n2c(nc3ccccc32)[nH]1,inactive
4,COc1ccc(C2/C=C\CN(S(=O)(=O)c3ccc(C)cc3)CC(=O)N2Cc2cccc(F)c2)cc1 (centres undefined),inactive
5,N#CC1=C(N)Oc2cc(N)ccc2C1c1cccnc1 (centres undefined),active: 15.8 µM
6,COc1ccccc1C(=O)c1c(C)c(CCC#N)n2ccccc12,"inconclusive: 4.47 µM [inhibitor, full curve, poor fit]"
7,CC(C)(C)c1ccc(Cn2nnc3c(=O)[nH]c(C4CCCN(C(=O)c5cccs5)C4)nc32)cc1 (centres undefined),inactive
8,CC(=O)N1CCN(c2ccccc2NC(=O)COc2ccc(Br)cc2)CC1,inactive
9,CCOC(=O)c1ccc(NC(=O)CCc2c(C)nc3c(c(C)nn3-c3ccccc3)c2C)cc1,inactive
10,O=C(NNC(=S)Nc1ccc(Br)cc1)c1ccccc1Br,inactive
11,COc1cc(CNc2ccc3[nH]c(=O)[nH]c3c2)ccc1OCc1ccccc1Cl,"inconclusive: 1.41 µM [activator, partial curve, poor fit]"
12,Cc1ccc(C(=O)CCC(=O)Nc2ncccc2O)cc1,"inconclusive: 14.1 µM [activator, partial curve, poor fit]"
13,O=C(Cn1nnc(-c2ccccc2Cl)n1)N/N=C/c1ccc(-c2cccc(Cl)c2)o1,inactive
14,O=C(CCN1C(=O)CSC1=O)Nc1ccc(Br)cc1,inactive
15,CC[C@@H](C)[C@H]1O[C@]2(CC[C@H]1C)C[C@@H]1C[C@@H](CC=C(C)[C@@H](O[C@H]3C[C@H](OC)[C@@H](O[C@H]4C[C@H](OC)[C@@H](O)[C@H](C)O4)[C@H](C)O3)[C@@H](C)C=CC=C3CO[C@@H]4[C@H](O)C(C)=C[C@@H](C(=O)O1)[C@]34O)O2,active: 10.3 µM
16,COc1cccc(CN2CCC(C(=O)Nc3ccc(Oc4cccnc4)cc3)CC2)c1,"inconclusive: 25.1 µM [inhibitor, single point]"
17,COC(=O)Nc1nc2c(C)cccc2s1,"inconclusive: 29.1 µM [activator, single point]"
18,O=C1C=C(Nc2ccccc2O)c2ccccc2C1=O,"inconclusive: 10 µM [inhibitor, partial curve, poor fit]"
19,Cc1ccc(CN(Cc2ccco2)C(=O)COc2ccccc2C)cc1,inactive
20,Cc1ccc2nc3c(cc(C(=O)NCCc4ccccc4)c(=N)n3CCCN3CCOCC3)c(=O)n2c1,"inconclusive: 1.58 µM [inhibitor, full curve, poor fit]"
21,CCOC(=O)C1=C(O)/C(=C\c2cc(C)n(-c3ccc(F)cc3)c2C)N=C1C,inactive
22,Cc1ccc(-c2c3c(=O)n(C)c(=O)n(C)c3cn2CCCN2CCOCC2)cc1,"inconclusive: 35.5 µM [activator, single point]"
23,c1ccc(CCNc2nc(-c3cccnc3)cs2)cc1,inactive

# Given with tabs: 17 of the compounds above
row	Structure (SMILES)	Potency
2	CN(Cc1ccc(N(C)C)cc1)C(=O)c1cc2ccccc2o1	inactive
3	CC1(C)CC2(CCO1)OC(=O)CC2C(=O)Nc1cccc2ccccc12 (centres undefined)	inactive
6	CN1CCN(C2Cc3cc(Cl)ccc3Sc3cc(F)ccc32)CC1 (centres undefined)	inconclusive: 10 µM [inhibitor, partial curve, poor fit]
13	CN(CCCNC(=O)CSc1cc(=O)n(C)c2cc(Cl)ccc12)Cc1ccccc1	inconclusive: 14.1 µM [inhibitor, single point]
16	COC(=O)c1cc(NC(=O)CC2SC(=Nc3ccccc3)N(CCc3c[nH]c4ccccc34)C2=O)cc(C(=O)OC)c1 (centres undefined)	inconclusive: 20.6 µM [inhibitor, partial curve, poor fit]
17	COc1cccc(/C=N/Nc2nc3ccccc3n3cnnc23)c1	inconclusive: 5.62 µM [inhibitor, partial curve, poor fit]
20	CCCCc1ccc(NC(=S)NCCO)cc1	inconclusive: 2.51 µM [activator, single point]
5	O=C1C2C3CCC(C3)C2C(=O)N1Cc1ccco1 (centres undefined)	inactive
8	CCOC(=O)c1c(CSCc2ccccc2)oc2ccc(O)c(CN(C)C)c12	inconclusive: 2.82 µM [inhibitor, full curve, poor fit]
11	O=C(CNS(=O)(=O)c1ccc([N+](=O)[O-])cc1)N/N=C/c1ccc(O)cc1O	inconclusive: 6.31 µM [inhibitor, full curve, poor fit]
14	CCOc1ccc(CCNS(=O)(=O)c2cnc[nH]2)cc1OCC	inactive
21	CCn1c(SCC(=O)N2CCCCCC2)nc2ccccc2c1=O	inconclusive: 8.91 µM [inhibitor, partial curve, poor fit]
22	COc1ccc(O)c(/C=N/NC(=O)c2ccc(CSc3nc(C)cc(C)n3)cc2)c1	inconclusive: 35.5 µM [inhibitor, partial curve, poor fit]
1	COc1ccc(C(=O)O)cc1NC(=S)NC(=O)C(c1ccccc1)c1ccccc1	inconclusive: 12.6 µM [inhibitor, partial curve, poor fit]
12	Cc1ccc(C(=O)CCC(=O)Nc2ncccc2O)cc1	inconclusive: 14.1 µM [activator, partial curve, poor fit]
14	O=C(CCN1C(=O)CSC1=O)Nc1ccc(Br)cc1	inactive
17	COC(=O)Nc1nc2c(C)cccc2s1	inconclusive: 29.1 µM [activator, single point]
